This note sets out measurements from US20190284292A1.

Protein sequences, listed by entry. Tags and fused reporters are not part of them. Residues count along the entry.
UniProt Q07011, residues 24-186: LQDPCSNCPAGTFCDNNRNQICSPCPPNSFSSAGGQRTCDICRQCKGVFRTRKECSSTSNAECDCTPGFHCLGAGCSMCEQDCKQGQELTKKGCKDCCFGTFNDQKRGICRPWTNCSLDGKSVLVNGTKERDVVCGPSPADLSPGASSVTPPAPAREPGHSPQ

No constants are given. Whether binding was seen depends on the method and setting. Some results given as binding are weak or reduced against the parent protein; the word gives no strength.

The target in the test is 4-1BB recombinant protein (UniProt Q07011). Kind of test: precipitation of protease digests by the antibody, LC/MS/MS.

B1: ZW106 (antibody, V domains shown)
VH: QVQLQQPESELVRPGGSVKLSCKASGYTFTSYWMDWVKQRHGQGLEWIGNIYPDSGGTNYAEKFKSKATLTVDTSSSTAYMHLSSLTSEDSAVYYCTREEALGGYYELTYWGQGTLVTVSA
VL: DIVLTQSPASLPVSLGQRATISCRASQSVSTSSYSYMHWYQQKPGQPPKLLIKYASNLESGVPARFSGSGSGTDFTLNIHPVEEEDTATYYCQHSWEIPYTFGGGTKLEIE
For B1, the binding result is “binds”.
